“And” between values parts separate entries of the source, which are not always exact repeats. Equal values may be shown once.
Test: GC-MS (SIM) quantification of substances in packaging migrates
Settings: 60°C, 10 days

Structure (SMILES) | Concentration in migrate (migrate of sample PP 2, 95% EtOH) | Concentration in migrate (migrate of sample CF 1, 95% EtOH)
CC(C)(C)c1ccc(O)c(C(C)(C)C)c1 [2,4-di-tert-butylphenol] | 0.11 mg/L and 0.11 ± 0.03 mg/L | –
CCCCC(CC)COC(=O)CCCCC(=O)OCC(CC)CCCC (centres unmarked) [diethylhexyladipate (DEHA), diethylhexyladipate] | – | 1.2 ± 0.4 mg/L

Source: article PMC4085075, “Characterization of Estrogen and Androgen Activity of Food Contact Materials by Different In Vitro Bioassays (YES, YAS, ERα and AR CALUX) and Chromatographic Analysis (GC-MS, HPLC-MS)” (PLoS ONE, 2014)
